In the supplement of paper PMC10849652:
The other results are listed elsewhere or left out.

Sequences of proteins named here, by UniProt entry; tags and fusion partners are left off. A change or cut given only in a name is not applied to a line headed by its entry.
UniProt P50995, whole entry, looked up: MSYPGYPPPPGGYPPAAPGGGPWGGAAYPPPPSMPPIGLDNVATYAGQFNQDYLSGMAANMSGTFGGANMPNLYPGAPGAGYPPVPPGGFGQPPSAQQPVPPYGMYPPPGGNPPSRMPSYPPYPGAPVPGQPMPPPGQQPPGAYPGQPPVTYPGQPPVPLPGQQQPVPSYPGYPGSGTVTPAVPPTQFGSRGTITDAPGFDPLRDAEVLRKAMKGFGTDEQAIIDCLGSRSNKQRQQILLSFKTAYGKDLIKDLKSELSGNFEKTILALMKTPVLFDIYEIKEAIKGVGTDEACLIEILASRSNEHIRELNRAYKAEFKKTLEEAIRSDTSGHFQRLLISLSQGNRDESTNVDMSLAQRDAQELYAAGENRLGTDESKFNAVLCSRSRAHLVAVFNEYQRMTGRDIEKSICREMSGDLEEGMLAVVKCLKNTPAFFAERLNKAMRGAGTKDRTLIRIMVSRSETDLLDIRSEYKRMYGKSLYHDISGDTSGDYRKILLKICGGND
UniProt P61204: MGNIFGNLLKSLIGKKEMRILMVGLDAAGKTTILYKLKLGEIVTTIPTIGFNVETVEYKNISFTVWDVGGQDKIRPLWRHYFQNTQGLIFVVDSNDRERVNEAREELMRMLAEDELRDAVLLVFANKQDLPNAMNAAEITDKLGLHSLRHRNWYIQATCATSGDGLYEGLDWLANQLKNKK
UniProt P52565: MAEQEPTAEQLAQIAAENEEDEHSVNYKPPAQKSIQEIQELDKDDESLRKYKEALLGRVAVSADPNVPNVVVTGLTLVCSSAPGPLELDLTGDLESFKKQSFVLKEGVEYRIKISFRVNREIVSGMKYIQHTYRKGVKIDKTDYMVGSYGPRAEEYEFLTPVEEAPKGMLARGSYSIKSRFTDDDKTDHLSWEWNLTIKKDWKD
UniProt P84085: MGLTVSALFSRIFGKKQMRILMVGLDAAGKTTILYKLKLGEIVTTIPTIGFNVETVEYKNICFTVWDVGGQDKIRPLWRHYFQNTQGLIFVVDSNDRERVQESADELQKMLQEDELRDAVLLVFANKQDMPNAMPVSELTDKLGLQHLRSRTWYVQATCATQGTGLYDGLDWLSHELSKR
UniProt Q9P2R3: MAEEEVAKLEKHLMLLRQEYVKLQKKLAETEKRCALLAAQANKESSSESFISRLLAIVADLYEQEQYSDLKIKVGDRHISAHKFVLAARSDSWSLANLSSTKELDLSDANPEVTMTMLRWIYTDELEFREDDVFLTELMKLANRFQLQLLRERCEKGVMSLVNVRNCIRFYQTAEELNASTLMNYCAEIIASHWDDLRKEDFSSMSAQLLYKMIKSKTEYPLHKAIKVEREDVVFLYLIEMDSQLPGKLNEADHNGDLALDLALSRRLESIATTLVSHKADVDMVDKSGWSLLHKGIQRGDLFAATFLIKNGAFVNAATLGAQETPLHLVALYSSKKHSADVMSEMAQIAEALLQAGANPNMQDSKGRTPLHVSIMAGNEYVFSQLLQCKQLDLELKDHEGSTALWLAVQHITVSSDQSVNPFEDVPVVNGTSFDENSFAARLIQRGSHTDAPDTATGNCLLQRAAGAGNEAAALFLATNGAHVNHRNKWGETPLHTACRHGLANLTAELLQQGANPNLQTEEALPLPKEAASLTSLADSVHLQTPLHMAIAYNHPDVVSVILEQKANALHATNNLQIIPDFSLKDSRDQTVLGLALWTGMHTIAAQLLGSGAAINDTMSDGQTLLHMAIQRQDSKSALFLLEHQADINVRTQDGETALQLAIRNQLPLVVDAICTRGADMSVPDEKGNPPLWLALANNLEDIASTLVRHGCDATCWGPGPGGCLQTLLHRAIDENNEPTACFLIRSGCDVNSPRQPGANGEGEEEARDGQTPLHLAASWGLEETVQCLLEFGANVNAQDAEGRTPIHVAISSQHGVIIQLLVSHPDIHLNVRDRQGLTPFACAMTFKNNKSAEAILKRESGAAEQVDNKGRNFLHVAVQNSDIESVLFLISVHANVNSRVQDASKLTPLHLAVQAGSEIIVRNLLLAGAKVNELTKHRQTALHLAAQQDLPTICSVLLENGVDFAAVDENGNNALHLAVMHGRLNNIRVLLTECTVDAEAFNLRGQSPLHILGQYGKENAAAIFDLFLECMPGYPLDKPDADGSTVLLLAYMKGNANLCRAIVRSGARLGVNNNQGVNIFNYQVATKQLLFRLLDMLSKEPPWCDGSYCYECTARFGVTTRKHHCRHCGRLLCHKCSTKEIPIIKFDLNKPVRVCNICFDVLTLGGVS
UniProt Q9BZZ5: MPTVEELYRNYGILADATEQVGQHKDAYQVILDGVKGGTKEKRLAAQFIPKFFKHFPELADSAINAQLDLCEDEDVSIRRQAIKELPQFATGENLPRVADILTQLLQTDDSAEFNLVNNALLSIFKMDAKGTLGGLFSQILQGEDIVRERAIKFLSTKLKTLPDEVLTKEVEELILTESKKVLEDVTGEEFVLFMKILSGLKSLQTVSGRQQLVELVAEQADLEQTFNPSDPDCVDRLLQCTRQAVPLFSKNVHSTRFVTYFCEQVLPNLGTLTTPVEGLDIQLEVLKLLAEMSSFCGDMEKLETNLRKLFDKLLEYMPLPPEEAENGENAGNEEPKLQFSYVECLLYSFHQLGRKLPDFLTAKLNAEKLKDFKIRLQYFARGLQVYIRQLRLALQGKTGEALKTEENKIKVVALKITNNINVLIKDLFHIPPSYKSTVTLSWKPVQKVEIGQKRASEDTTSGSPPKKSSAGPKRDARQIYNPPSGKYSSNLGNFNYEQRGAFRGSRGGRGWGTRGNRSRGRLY
UniProt P09525: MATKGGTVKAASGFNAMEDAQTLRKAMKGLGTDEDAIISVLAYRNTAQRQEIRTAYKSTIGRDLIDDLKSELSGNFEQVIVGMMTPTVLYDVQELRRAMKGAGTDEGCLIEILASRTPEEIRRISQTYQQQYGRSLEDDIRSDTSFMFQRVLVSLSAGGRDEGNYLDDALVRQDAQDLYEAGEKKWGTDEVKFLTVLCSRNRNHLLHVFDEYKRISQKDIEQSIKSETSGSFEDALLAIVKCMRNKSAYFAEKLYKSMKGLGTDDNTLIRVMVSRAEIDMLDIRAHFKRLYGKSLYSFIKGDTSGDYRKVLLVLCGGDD
UniProt Q8N392: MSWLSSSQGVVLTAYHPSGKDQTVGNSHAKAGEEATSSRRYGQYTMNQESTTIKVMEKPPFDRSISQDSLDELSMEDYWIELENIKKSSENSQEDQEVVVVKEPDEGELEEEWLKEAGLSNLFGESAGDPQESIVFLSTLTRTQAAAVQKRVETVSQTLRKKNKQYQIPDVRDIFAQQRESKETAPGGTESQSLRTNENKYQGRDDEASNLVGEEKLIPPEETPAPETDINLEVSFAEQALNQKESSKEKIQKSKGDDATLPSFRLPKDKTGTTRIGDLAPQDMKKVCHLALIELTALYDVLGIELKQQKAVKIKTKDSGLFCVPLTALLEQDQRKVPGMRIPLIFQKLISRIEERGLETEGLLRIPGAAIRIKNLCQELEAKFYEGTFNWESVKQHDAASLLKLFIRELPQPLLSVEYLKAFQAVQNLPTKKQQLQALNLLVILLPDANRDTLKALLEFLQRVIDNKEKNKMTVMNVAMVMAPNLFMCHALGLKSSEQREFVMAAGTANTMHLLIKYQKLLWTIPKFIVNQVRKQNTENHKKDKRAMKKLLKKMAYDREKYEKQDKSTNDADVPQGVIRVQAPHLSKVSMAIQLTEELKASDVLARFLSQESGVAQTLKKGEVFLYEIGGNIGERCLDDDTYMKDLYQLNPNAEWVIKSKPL
UniProt Q9NP61: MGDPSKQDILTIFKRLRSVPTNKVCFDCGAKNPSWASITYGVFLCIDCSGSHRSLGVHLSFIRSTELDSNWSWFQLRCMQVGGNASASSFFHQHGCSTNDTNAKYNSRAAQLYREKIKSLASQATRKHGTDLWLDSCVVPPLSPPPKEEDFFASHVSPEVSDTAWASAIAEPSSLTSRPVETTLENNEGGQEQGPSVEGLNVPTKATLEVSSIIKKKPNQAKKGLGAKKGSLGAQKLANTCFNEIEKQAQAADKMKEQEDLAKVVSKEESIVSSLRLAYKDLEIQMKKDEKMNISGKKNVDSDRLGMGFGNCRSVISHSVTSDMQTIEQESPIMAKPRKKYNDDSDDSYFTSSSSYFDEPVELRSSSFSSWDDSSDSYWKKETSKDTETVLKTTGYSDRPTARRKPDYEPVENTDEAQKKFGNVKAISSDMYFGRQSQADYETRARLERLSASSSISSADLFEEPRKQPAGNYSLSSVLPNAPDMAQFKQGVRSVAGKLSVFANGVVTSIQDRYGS
UniProt P13798: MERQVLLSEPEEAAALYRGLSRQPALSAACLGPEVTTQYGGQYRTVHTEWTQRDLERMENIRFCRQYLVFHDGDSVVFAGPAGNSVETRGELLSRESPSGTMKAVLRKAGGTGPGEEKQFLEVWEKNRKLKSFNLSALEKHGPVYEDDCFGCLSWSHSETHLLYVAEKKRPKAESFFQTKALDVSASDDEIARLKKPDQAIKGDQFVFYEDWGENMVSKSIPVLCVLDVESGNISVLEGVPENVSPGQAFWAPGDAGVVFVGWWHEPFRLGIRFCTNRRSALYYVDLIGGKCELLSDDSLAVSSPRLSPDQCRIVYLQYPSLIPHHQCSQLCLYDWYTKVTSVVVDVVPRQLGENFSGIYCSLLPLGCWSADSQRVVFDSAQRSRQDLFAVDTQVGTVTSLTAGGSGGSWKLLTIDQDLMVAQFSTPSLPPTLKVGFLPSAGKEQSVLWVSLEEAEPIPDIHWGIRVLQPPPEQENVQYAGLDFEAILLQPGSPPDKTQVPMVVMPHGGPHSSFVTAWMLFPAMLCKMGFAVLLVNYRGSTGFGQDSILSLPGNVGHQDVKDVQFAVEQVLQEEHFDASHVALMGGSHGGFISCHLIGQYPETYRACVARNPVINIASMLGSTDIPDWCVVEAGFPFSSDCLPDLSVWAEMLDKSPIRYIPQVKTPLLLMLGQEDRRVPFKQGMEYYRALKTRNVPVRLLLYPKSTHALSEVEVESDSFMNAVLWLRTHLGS
UniProt Q9HDC9: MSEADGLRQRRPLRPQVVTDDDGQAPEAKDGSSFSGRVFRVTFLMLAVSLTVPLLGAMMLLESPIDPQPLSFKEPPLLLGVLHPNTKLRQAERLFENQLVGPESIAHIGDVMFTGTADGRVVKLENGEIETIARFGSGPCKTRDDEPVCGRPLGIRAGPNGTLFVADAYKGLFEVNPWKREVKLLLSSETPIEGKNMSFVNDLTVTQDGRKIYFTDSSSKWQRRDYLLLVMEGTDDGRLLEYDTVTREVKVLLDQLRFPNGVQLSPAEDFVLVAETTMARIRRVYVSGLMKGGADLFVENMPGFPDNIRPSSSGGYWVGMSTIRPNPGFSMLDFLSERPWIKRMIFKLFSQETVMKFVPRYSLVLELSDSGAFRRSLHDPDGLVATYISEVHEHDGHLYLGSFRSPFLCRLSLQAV
UniProt Q92619: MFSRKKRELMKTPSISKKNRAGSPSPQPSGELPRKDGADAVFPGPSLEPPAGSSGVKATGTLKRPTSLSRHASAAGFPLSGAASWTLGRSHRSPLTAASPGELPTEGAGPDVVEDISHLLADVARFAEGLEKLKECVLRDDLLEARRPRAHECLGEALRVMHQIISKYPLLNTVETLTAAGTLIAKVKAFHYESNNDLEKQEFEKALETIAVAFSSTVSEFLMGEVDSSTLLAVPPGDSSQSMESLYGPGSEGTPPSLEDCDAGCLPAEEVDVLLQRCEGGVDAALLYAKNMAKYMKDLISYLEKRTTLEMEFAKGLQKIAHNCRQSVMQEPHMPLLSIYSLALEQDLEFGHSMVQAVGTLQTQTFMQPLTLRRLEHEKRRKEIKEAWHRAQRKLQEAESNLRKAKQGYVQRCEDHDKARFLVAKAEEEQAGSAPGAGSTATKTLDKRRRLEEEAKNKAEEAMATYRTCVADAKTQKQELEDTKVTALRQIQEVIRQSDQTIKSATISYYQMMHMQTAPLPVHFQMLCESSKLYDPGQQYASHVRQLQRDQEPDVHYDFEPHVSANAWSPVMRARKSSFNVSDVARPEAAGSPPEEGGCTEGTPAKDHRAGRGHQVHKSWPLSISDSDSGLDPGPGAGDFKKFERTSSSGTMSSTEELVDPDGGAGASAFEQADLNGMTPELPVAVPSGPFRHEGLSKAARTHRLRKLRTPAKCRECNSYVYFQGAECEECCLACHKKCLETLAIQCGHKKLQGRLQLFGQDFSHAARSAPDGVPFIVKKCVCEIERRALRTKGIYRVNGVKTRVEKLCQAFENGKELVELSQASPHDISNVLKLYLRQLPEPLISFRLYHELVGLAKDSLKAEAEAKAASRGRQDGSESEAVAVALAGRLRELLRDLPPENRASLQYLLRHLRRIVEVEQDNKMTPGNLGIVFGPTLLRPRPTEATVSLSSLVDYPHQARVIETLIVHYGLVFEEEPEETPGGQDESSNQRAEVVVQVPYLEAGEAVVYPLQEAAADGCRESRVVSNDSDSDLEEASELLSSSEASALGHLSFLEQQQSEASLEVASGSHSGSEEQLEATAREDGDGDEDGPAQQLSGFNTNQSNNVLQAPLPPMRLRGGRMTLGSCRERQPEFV

These targets were tested with C1COCCN1CCN2C3=CC=CC=C3N=C2NC(=O)C4=CC(=CC=C4)[N+](=O)[O-] [IRAK-1-4 Inhibitor I] (assay: log2 fold change, soluble protein after heating vs DMSO (PISA); higher = thermal stabilisation; K562 cells, 10 uM, 30 min; active = over 0.2 and 3.5 SD of the protein, either way, in both replicates (recomputed)).
In short: (§1)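 K562 cells at 2×10^6 cells/mL were exposed to 10 μM compound for 30 min, then aliquots were heated for 3 min across 48°C-58°C, pooled, and extracted in PBS containing 0.5% NP-40 at 4°C. The supernatant after 21,000xg for 90 min was taken as soluble protein and measured by TMTpro 16plex LC-MS/MS with channel sums equalised. Thermal stability is reported relative to control samples, with values from duplicates. Fold changes are given on a log2 scale.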

Target | log2 fold change
ANXA11 (UniProt P50995) | inactive: 0.02
ARF1 (UniProt P84077) | inactive: -0.014
ARCN1 (UniProt P48444) | inactive: -0.002
AP1M1 (UniProt Q9BXS5) | inactive: -0.014
ANTKMT (UniProt Q9BQD7) | inactive: 0.068
ANK3 (UniProt Q12955) | inactive: -0.287
ANKMY2 (UniProt Q8IV38) | inactive: -0.003
ANAPC16 (UniProt Q96DE5) | inactive: 0.011
ANKRD54 (UniProt Q6NXT1) | inactive: 0.004
ANP32B (UniProt Q92688) | inactive: 0.057
ARIH1 (UniProt Q9Y4X5) | inactive: 0.052
APOC1 (UniProt P02654) | inactive: 0.1
ANXA6 (UniProt P08133) | inactive: -0.02
ARF3 (UniProt P61204) | inactive: -0.004
ARHGDIA (UniProt P52565) | inactive: 0.023
ARF5 (UniProt P84085) | inactive: -0.007

Target | log2 fold change
ANKFY1 isoform 4 (UniProt Q9P2R3) | inactive: -0.117
API5 isoform 2 (UniProt Q9BZZ5) | inactive: 0.024
ANXA4 (UniProt P09525) | inactive: -0.032
ARHGAP18 (UniProt Q8N392) | inactive: -0.177
ANXA2 isoform 2 (UniProt P07355) | inactive: 0.021
ARFGAP3 (UniProt Q9NP61) | inactive: 0.013
APEH (UniProt P13798) | inactive: 0.034
ARHGEF2 (UniProt Q92974) | inactive: -0.145
APOBEC3C (UniProt Q9NRW3) | inactive: -0.072
API5 (UniProt Q9BZZ5) | inactive: 0.02
ANKHD1 isoform 6 (UniProt Q8IWZ3) | inactive: -0.118
AP3S1 (UniProt Q92572) | inactive: -0.035
ANO6 isoform 2 (UniProt Q4KMQ2) | inactive: 0.079
APMAP (UniProt Q9HDC9) | inactive: 0.033
APOO (UniProt Q9BUR5) | inactive: 0.026
ARHGAP45 isoform 2 (UniProt Q92619) | inactive: 0.004

These targets were tested with C=CC(=O)N1CCC[C@@H](n2nc(-c3ccc(Oc4ccccc4)cc3)c3c(N)ncnc32)C1 [ibrutinib] in the same assay as above.
In short: as §1

Target | log2 fold change
ANXA11 (UniProt P50995) | inactive: -0.08
ARF1 (UniProt P84077) | inactive: 0.059
ARCN1 (UniProt P48444) | inactive: -0.03
AP1M1 (UniProt Q9BXS5) | inactive: -0.029
ANTKMT (UniProt Q9BQD7) | inactive: 0.086
ANK3 (UniProt Q12955) | inactive: -0.015
ANKMY2 (UniProt Q8IV38) | inactive: 0.003
ANAPC16 (UniProt Q96DE5) | inactive: 0.015
ANKRD54 (UniProt Q6NXT1) | inactive: 0.087
ANP32B (UniProt Q92688) | inactive: -0.042
ARIH1 (UniProt Q9Y4X5) | inactive: 0.005
APOC1 (UniProt P02654) | inactive: 0.016
ANXA6 (UniProt P08133) | inactive: -0.007
ARF3 (UniProt P61204) | inactive: 0.003
ARHGDIA (UniProt P52565) | inactive: -0.015
ARF5 (UniProt P84085) | inactive: 0.011

Target | log2 fold change
ANKFY1 isoform 4 (UniProt Q9P2R3) | inactive: 0.043
API5 isoform 2 (UniProt Q9BZZ5) | inactive: 0.017
ANXA4 (UniProt P09525) | inactive: -0.031
ARHGAP18 (UniProt Q8N392) | inactive: -0.101
ANXA2 isoform 2 (UniProt P07355) | inactive: -0.032
ARFGAP3 (UniProt Q9NP61) | inactive: -0.015
APEH (UniProt P13798) | inactive: 0
ARHGEF2 (UniProt Q92974) | inactive: 0.015
APOBEC3C (UniProt Q9NRW3) | inactive: 0.073
API5 (UniProt Q9BZZ5) | inactive: -0.016
ANKHD1 isoform 6 (UniProt Q8IWZ3) | inactive: -0.007
AP3S1 (UniProt Q92572) | inactive: -0.052
ANO6 isoform 2 (UniProt Q4KMQ2) | inactive: 0.045
APMAP (UniProt Q9HDC9) | inactive: -0.015
APOO (UniProt Q9BUR5) | inactive: -0.006
ARHGAP45 isoform 2 (UniProt Q92619) | inactive: -0.024

What follows are targets tested with CC(=O)c1cnc2ccc(-c3cc(Cl)c(O)c(Cl)c3)nc2c1N[C@H]1CC[C@H](CN(C)C)CC1 in the same assay as above.
In short: as §1

Target | log2 fold change
ANXA11 (UniProt P50995) | inactive: -0.028
ARF1 (UniProt P84077) | inactive: -0.032
ARCN1 (UniProt P48444) | inactive: 0.008
AP1M1 (UniProt Q9BXS5) | inactive: 0.019
ANTKMT (UniProt Q9BQD7) | inactive: -0.074
ANK3 (UniProt Q12955) | inactive: 0.12
ANKMY2 (UniProt Q8IV38) | inactive: -0.014
ANAPC16 (UniProt Q96DE5) | inactive: -0.159
ANKRD54 (UniProt Q6NXT1) | inactive: -0.106
ANP32B (UniProt Q92688) | inactive: -0.069
ARIH1 (UniProt Q9Y4X5) | inactive: 0.043
APOC1 (UniProt P02654) | inactive: -0.007
ANXA6 (UniProt P08133) | inactive: 0.001
ARF3 (UniProt P61204) | inactive: -0.006
ARHGDIA (UniProt P52565) | inactive: 0.024
ARF5 (UniProt P84085) | inactive: 0.005

Target | log2 fold change
ANKFY1 isoform 4 (UniProt Q9P2R3) | inactive: 0.005
API5 isoform 2 (UniProt Q9BZZ5) | inactive: -0.12
ANXA4 (UniProt P09525) | inactive: 0
ARHGAP18 (UniProt Q8N392) | inactive: 0.003
ANXA2 isoform 2 (UniProt P07355) | inactive: 0.007
ARFGAP3 (UniProt Q9NP61) | inactive: -0.018
APEH (UniProt P13798) | inactive: 0.004
ARHGEF2 (UniProt Q92974) | inactive: 0.066
APOBEC3C (UniProt Q9NRW3) | inactive: 0.019
API5 (UniProt Q9BZZ5) | inactive: -0.006
ANKHD1 isoform 6 (UniProt Q8IWZ3) | inactive: 0.054
AP3S1 (UniProt Q92572) | inactive: 0
ANO6 isoform 2 (UniProt Q4KMQ2) | inactive: -0.011
APMAP (UniProt Q9HDC9) | inactive: -0.01
APOO (UniProt Q9BUR5) | inactive: 0.003
ARHGAP45 isoform 2 (UniProt Q92619) | inactive: 0.052
